Here are results for 61 compounds from PubChem BioAssay AID445 (National Center for Advancing Translational Sciences (NCATS), 2006).

This is one part of the list. Further columns of the screen follow, without active or inactive calls. Most of these compounds were active or inconclusive in the main read-out, so they are no random draw. The note in brackets gives the kind of curve behind each potency; many fits are weak.

This test is described as follows: IkB Signaling. The conditions noted are these: ABC-DLBCL IkBa-CBG/CBR dual luciferase ratio (green luciferase fused to IkBa over red control in OCI-Ly3 lymphoma cells), 4 h. The gist of the method: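 Luminescence ratio of IκBα-fused green versus native red beetle luciferase in OCI-Ly3 cells, 4 h post-doxycycline with compound; red signal alone, scaled from basal (0%) to zero light (-100%), flagged nonspecific or cytotoxic effects.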
The mark [1] stands for this setting: measured here: control luc red channel unless noted.
Setting [2] is: measured here: IkB-luc green channel.
Setting [3] is: measured here: control luc red channel.

`CCn1c(SCC(=O)Nc2cccc(NC(=O)c3ccco3)c2)nnc1-c1cccs1`: under setting [1], the AC50 was 7.94 µM [falling, partial curve]. On to `CCSc1nc2n(n1)C(c1ccc(Cl)cc1Cl)C(C(=O)Nc1ccccc1C)=C(C)N2` (stereo not drawn), for which, under setting [1], the AC50 was 31.6 µM [falling, single point].

As to `CCCCOc1ccc(C(=O)N(Cc2ccc(N(C)C)cc2)Cc2ccco2)cc1`, the AC50 under setting [1] was 20 µM [falling, partial curve].

Take `CC(C)(C)c1ccc(-c2nc(NC(=O)CSc3ncnc4sc5c(c34)CCCC5)ns2)cc1`: the AC50 under setting [1] was 0.2 µM [falling, full curve, poor fit]. For `Cc1ccc(-n2ncc3c(NCc4ccccc4)ncnc32)cc1Cl`, the AC50 under setting [1] is 20 µM [falling, single point]. Still for that read-out and setting: in the case of `COc1ccc(N2CC(NC(=O)/C=C\c3ccc4c(c3)OCO4)CC2=O)cc1OC` (stereo not drawn) it was 25.1 µM [falling, single point]; in that of `O=C(NCCc1csc(-c2cccnc2)n1)c1cccc(Cl)c1`, 31.6 µM [falling, single point]. Consider `Cc1ccc2ncc(C(=O)c3ccc(C)c(C)c3)c(S(=O)(=O)c3ccc(F)cc3)c2c1`, for which, under setting [1], the AC50 was 3.16 µM [falling, full curve].

With `CCOc1ccc(CC(=O)NCCc2sc3nc(-c4ccc(F)cc4)nn3c2C)cc1`, the AC50 under setting [1] is 7.94 µM [falling, partial curve]. On the same count and under the same terms, in the case of `O=C(c1ccc(COc2ccccc2Cl)o1)N1CCN(c2ccccc2)CC1` it was 15.8 µM [falling, partial curve]; in that of `Cc1ccccc1Cn1c(SCc2ccc(C(=O)NC3CCCCC3)cc2)nc2ccncc21`, 31.6 µM [falling, partial curve].

For `CC(C)N(Cc1nc(-c2ccc(Cl)cc2)no1)C(=O)c1ccc(C(C)(C)C)cc1`, the AC50 under setting [1] was 25.1 µM [falling, partial curve]. For the compound `CC(C)Cc1cc(C(=O)NCc2cccs2)no1`, under setting [1], the AC50 was 12.6 µM [falling, partial curve].

On to `Cc1cccc(NC(=O)CSc2nc3ccc(NC(=O)c4ccccc4)cc3s2)c1`, for which the AC50 under setting [1] was 3.98 µM [falling, full curve].

Regarding `CC1=C(c2ccc(Cl)cc2)S(=O)(=O)N=C1N1CCN(c2cccc(C)c2C)CC1`, under setting [1], the AC50 is 3.16 µM [rising, partial curve]. Still for that read-out and setting: in the case of `CCOc1ccc(-c2cc3nc(C4CCN(C(=O)OC(C)(C)C)CC4)c(C(=O)Nc4cccc(CC)c4)cn3n2)cc1` it was 25.1 µM [falling, partial curve]. On the same count and under the same terms, in the case of `Cc1ccc(CNc2nnc(C)c3nnn(Cc4ccc(F)cc4)c23)cc1` it was 1.58 µM [rising, partial curve]; in that of `CC(C)(C)OC(=O)N1CCC(c2c(C(=O)NCCN3CCc4ccccc4C3)cnn2-c2ccc(F)cc2)CC1`, 12.6 µM [falling, partial curve]. Same read-out and setting: with `Cc1ccc(CNC(=O)Nc2cc(C(=O)NCc3ccc(C(C)C)cc3)ccc2N2CCCC2)cc1` the figure was 12.6 µM [falling, partial curve]; with `COc1ccccc1C(=O)N1c2ncnn2C2(CCCCC2)[C@@H]2CCCC[C@@H]21`, 25.1 µM [falling, single point].

Consider `CCn1c(=O)cc(SCC(=O)NCc2cccc(Cl)c2)c2ccccc21`, for which the AC50 under setting [1] is 1.58 µM [falling, partial curve, poor fit].

In the case of `CSc1nc(Nc2ccc(F)cc2)cc(-c2ccccc2)n1`, the AC50 under setting [1] is 10 µM [falling, partial curve]. The same measure, in the same setting: in the case of `CCOc1ccc(-c2nn(-c3ccccc3)cc2C2NC(=O)NC(C)=C2C(=O)OC(C)C)cc1` (stereo not drawn) it was 25.1 µM [falling, single point]; in that of `COc1ccccc1NC(=O)CSc1nncn2c1cc1sccc12`, 15.8 µM [falling, single point]; in that of `CSc1nc(N(CCO)CCO)c2sc3nc(-c4ccco4)c4c(c3c2n1)CCC4`, 12.6 µM [falling, partial curve]. Same read-out and setting: with `CCOCCCNC(=O)C(c1ccccc1)N(Cc1ccc2c(c1)OCO2)C(=O)c1ccc(NC(C)=O)cc1` (stereo not drawn) the figure was 7.94 µM [falling, partial curve]. As to `CCC(=O)C1=C(c2ccc(F)cc2)N(C(=O)CC)n2cnnc2S1`, the AC50 was 31.6 µM [rising, partial curve] under setting [2] and 3.98 µM [rising, partial curve] under setting [3]. On to `Cc1ccccc1CN1C(=O)c2ccccc2S(=O)c2ccc(C(=O)NCc3ccc(Cl)cc3)cc21` (stereo not drawn), for which the AC50 under setting [1] is 12.6 µM [falling, partial curve]. On the same count and under the same terms, with `O=C(NCc1ccc2c(c1)OCO2)c1ccc2c(c1)N(Cc1ccccc1F)C(=O)c1ccccc1S2` the figure was 12.6 µM [falling, partial curve]. On the same count and under the same terms, with `CCN(C(=O)Cn1c(=O)n(-c2ccccc2)c(=O)c2ccc(C(=O)NCc3ccc4c(c3)OCO4)cc21)c1cccc(C)c1` the figure was 1.58 µM [falling, full curve]. Still for that read-out and setting: with `C=CCNC(=O)c1cc(-c2ccc(Br)cc2)on1` the figure was 2 µM [falling, full curve, poor fit].

Turning to `O=C(CCSc1nc2ccccc2o1)N1CCOCC1`, under setting [1], the AC50 is 2 µM [falling, full curve].

In the case of `CCC(=O)N1c2ccccc2CC1C(=O)NCc1cc(OC)ccc1OC` (stereo not drawn), the AC50 under setting [1] is 39.8 µM [falling, single point]. Same read-out and setting: with `O=C(Nc1ccc2c(c1)OCCO2)c1ccc2nccnc2c1` the figure was 15.8 µM [falling, partial curve]; with `CC(C)c1ccc(NC(=O)c2cc(S(=O)(=O)N(C)C3CCCCC3)ccc2F)cc1`, 0.00316 µM [falling, full curve, poor fit]. Regarding `CCCCn1cnc2cc(NCc3ccc(OCC)cc3)ccc21`, the AC50 under setting [1] was 31.6 µM [falling, single point]. Still for that read-out and setting: with `CCOc1ccc(NC(=O)c2cc(S(=O)(=O)N3CCc4ccccc43)ccc2F)cc1` the figure was 3.16 µM [falling, full curve]; with `Cc1ccc2c(=O)cc(C(=O)Nc3ccc(S(=O)(=O)Nc4onc(C)c4C)cc3)oc2c1C`, 25.1 µM [falling, partial curve]. The same measure, in the same setting: in the case of `O=C(CSc1oc(-c2ccccc2)nc1S(=O)(=O)c1ccc(Cl)cc1)c1ccccc1` it was 3.98 µM [falling, full curve]; in that of `Cc1ccc(-n2cc(C(=O)Oc3ccc(F)cc3)c3ccccc3c2=O)cc1`, 31.6 µM [falling, partial curve, poor fit]. Still for that read-out and setting: in the case of `O=C(CC1C(=O)N(c2ccc(F)cc2)C(=O)N1Cc1ccc2c(c1)OCO2)Nc1ccc(Cl)cc1` (stereo not drawn) it was 15.8 µM [falling, partial curve]; in that of `O=C(CSc1nc2ccccc2[nH]1)Nc1cc(C(F)(F)F)ccc1N1CCOCC1`, 15.8 µM [falling, partial curve]. `Cc1cc(C)nc(-n2nc(C)c3c2N(Cc2ccccc2)C(=O)CC3c2ccc(Cl)cc2)n1` (stereo not drawn): the AC50 under setting [1] is 15.8 µM [falling, partial curve]. Same read-out and setting: with `NC(=O)c1c(NC(=O)CS(=O)(=O)c2ccc(Cl)cc2)sc2c1CCCCC2` the figure was 12.6 µM [falling, partial curve]; with `Cc1ccc(Nc2c(-c3ccc(Br)o3)nc3ccccn23)cc1`, 39.8 µM [falling, single point]; with `COc1ccc(-c2cc(C(N)=O)nc(N3CCCCCC3)n2)cc1`, 10 µM [falling, partial curve]. On the same count and under the same terms, with `CCOc1ccc(NC(=O)CSC2=Nc3ccccc3C3=NC(CCC(=O)NCc4ccco4)C(=O)N23)cc1` (stereo not drawn) the figure was 2 µM [rising, full curve, poor fit]. Same read-out and setting: with `CCC(=O)Oc1c(Sc2ccc(Cl)cc2)c(C)nn1-c1ccccc1` the figure was 5.01 µM [falling, partial curve]; with `Cc1ccc(Cl)cc1N1CCN(C(=O)Cn2ncc3c4ccccc4n(C)c3c2=O)CC1`, 10 µM [falling, partial curve]; with `O=C(NCCCN1CCN(c2cccc(Cl)c2)CC1)c1sc2ncccc2c1-n1cccc1`, 31.6 µM [falling, partial curve]. Regarding `Cc1cc(Cl)ccc1NS(=O)(=O)c1c(C(=O)N2CCC(C)CC2)c(C)n(C)c1C`, the AC50 under setting [1] is 20 µM [falling, single point]. Still for that read-out and setting: in the case of `CC1CCCN(c2nc3c(-c4ccc(Cl)cc4)nnn3c3ccccc23)C1` (stereo not drawn) it was 2 µM [falling, full curve]. For the compound `N#Cc1c(N)sc(=S)c2c1CCN(Cc1ccccc1)C2`, the AC50 under setting [2] was 31.6 µM [rising, partial curve] and the AC50 under setting [3] was 39.8 µM [rising, single point]. Consider `COc1ccc2oc(=O)c(-c3nnc(-c4ccc(C)cc4)o3)cc2c1`, for which the AC50 under setting [1] was 25.1 µM [falling, partial curve].

For the compound `CCN(CC)S(=O)(=O)c1ccc2c(c1)N(CC(=O)NCc1ccccc1)C(=O)C1CCCCN21` (stereo not drawn), the AC50 under setting [1] is 3.16 µM [falling, partial curve, poor fit]. On the same count and under the same terms, with `Cc1cc2c(cc1S(=O)(=O)Nc1ccc(OC(F)(F)F)cc1)OCC(=O)N2` the figure was 20 µM [falling, single point]; with `COc1cc(-c2nnc(SCC(=O)c3cc(C)n(CC4CCCO4)c3C)o2)cc(OC)c1OC` (stereo not drawn), 31.6 µM [falling, single point]. On to `CCCCCN=Cc1c(C)[nH]n(-c2nc3ccccc3s2)c1=O`, for which, under setting [1], the AC50 is 3.98 µM [falling, partial curve]. Same read-out and setting: in the case of `O=C(c1ccc2c(c1)N(Cc1ccccc1F)C(=O)c1ccccc1S2(=O)=O)N1CCN(c2ccccn2)CC1` it was 2.51 µM [falling, partial curve]; in that of `OCCCN1c2ccccc2Nc2nnc(-c3ccccc3)cc21`, 7.94 µM [falling, partial curve].

For the compound `Cc1ccccc1NC(=O)c1c(C)oc2ccc(O)c(CN3CCOCC3)c12`, the AC50 under setting [1] was 25.1 µM [falling, single point].

A word on the AC50: it is the midpoint of the concentration-response curve, whichever way the signal moves.
